# In patent publication US20030110524A1, “TRANSGENIC ORGANISMS AND THEIR USES” (priority 1997, published 2003):
# For at least one compound, name, drawing or mass did not settle the structure.
# Assays:
# [1] = system: thyroid cells derived from control rats; experiment: Survival of thyroid cells from control rats with drugs; assay type: cell-based, rat; details: geneticin 400 μg/ml
# Protocol: (§1) Thyroid cultures derived from the thyroid gland of adult CD2/neo^r, TG/TK/neo^r and control animals were produced by routine methods (Freshney, 1987). Twenty-four hours after plating, geneticin (400 μg/ml) was added to cultures originating from both types of transgenic and the control rats, and replaced every three days with fresh medium. When required, cells were subcultured (1:2) to prevent their becoming confluent. Cell counts were made manually in 20 fields chosen randomly, and the values at each time point, after allowing for changes due to subculturing, were aggregated (Table 3). […] Ten days later, cell counts were again made of 20 fields chosen at random. […] The results were as expected in view of the specific and non-specific expression of the positive and negative selection markers, in the TG/TK/neo^r and CD2/neo^r transgenics, respectively.
# (§2) Drugs were added at day 2 in culture. Values are related to the number of cells found in control cultures without drug additions at various times after plating, and allow for dilutions resulting from passaging. Figures are the means of three separate determinations, the standard errors all being less than 15% of the mean.
# [2] = system: thyroid cells derived from TG/TK/neo^r transgenic rats; experiment: Survival of thyroid cells from TG/TK/neo^r transgenic rats with drugs; assay type: cell-based, rat; details: geneticin 400 μg/ml
# Protocol: as §1, §2
# [3] = system: cells not expressing the neo gene; experiment: Proposed protocol for the selective culture of mouse thyroid follicular cells; assay type: cell-based; details: primary culture of thyroid tissue of transgenic mice, neo under thyroglobulin promoter
# [4] = system: lung fibroblast cells derived from control rats; experiment: Survival of lung fibroblast cells from control rats with drugs; assay type: cell-based, rat; details: control animals; geneticin 400 μg/ml; more than 10 days treatment
# Protocol: (§3) Fibroblast cultures derived from lung of adult CD2/neo^r, TG/TK/neo^r and control animals were produced and expanded by routine methods (Freshney (1987), Alan R. Liss, New York). Twenty-four hours after plating, geneticin (400 μg/ml) was added to cultures originating from both types of transgenic rats and from control rats, and replaced every three days with fresh medium. When required, cells were subcultured (1:3) to prevent them becoming confluent, again by basic culture methods (Freshney 1987). Cell counts were made manually in 20 fields chosen randomly and the values at each time point, after allowing for changes due to subculturing, were aggregated. […] In the absence of added geneticin, no change in cell survival from either of the transgenic animals was observed.
# (§4) The effects of 5-fluorocytosine (5FC) were also determined. 5-fluorocytosine at a concentration of 100 μg/ml had no effect on fibroblast cells derived from control animals or from the TG/TK/neo^r transgenic. In the cells derived from the CD2/neo^r transgenic animal, however, 94% of the originally-plated cells died, or were non-functional (as determined by their failure to exclude trypan blue) after 10 days culture in the presence of 5FC (Table 2).
# (§5) Drugs were added at day 2 in culture. […]
# [5] = system: yeast spores and other common laboratory microbiological contaminants; experiment: Enhanced sterility in tissue culture: deliberately infected spinal cord cultures; assay type: cell-based; details: geneticin 1 mg/ml; sixty days after the initial plating; manipulations outside the sterile environment
# [6] = system: lung fibroblast cells derived from TG/TK/neo^r transgenic rats; experiment: Survival of lung fibroblast cells from TG/TK/neo^r transgenic rats with drugs; assay type: cell-based, rat; details: geneticin 400 μg/ml, more than 10 days treatment
# Protocol: as §3, §4, §5
# [7] = system: thyroid cells derived from CD2/neo^r transgenic rats; experiment: Survival of thyroid cells from CD2/neo^r transgenic rats with drugs; assay type: cell-based, rat; details: geneticin 400 μg/ml
# Protocol: as §1, §2
structure (smiles),measurement,setting,value
CN[C@@H]1[C@@H](O)[C@@H](O[C@@H]2[C@@H](O)[C@H](O[C@H]3O[C@H]([C@@H](C)O)[C@@H](O)[C@H](O)[C@H]3N)[C@@H](N)C[C@H]2N)OC[C@]1(C)O [geneticin],Survival of thyroid cells under geneticin treatment,[1],the control cells did not
same,Survival of thyroid cells under geneticin treatment,[2],survived the geneticin treatment
same,Effect of antibiotic on cells in primary thyroid culture,[3],kills cells not expressing the neo gene
same,Survival of fibroblast cells under geneticin treatment,[4],no fibroblast cells derived from control animals or the TG/TK/neo^r transgenic survived more than 10 days treatment
same,Contamination of deliberately infected culture,[5],no evidence of any form of contamination was apparent
same,Survival of fibroblast cells under geneticin treatment,[6],no fibroblast cells derived from control animals or the TG/TK/neo^r transgenic survived more than 10 days treatment
same,Survival of thyroid cells under geneticin treatment,[7],survived the geneticin treatment
